The target in assay [1] is T1, SEC24B (human (endogenous in HeLa)), O95487.
T1 chain: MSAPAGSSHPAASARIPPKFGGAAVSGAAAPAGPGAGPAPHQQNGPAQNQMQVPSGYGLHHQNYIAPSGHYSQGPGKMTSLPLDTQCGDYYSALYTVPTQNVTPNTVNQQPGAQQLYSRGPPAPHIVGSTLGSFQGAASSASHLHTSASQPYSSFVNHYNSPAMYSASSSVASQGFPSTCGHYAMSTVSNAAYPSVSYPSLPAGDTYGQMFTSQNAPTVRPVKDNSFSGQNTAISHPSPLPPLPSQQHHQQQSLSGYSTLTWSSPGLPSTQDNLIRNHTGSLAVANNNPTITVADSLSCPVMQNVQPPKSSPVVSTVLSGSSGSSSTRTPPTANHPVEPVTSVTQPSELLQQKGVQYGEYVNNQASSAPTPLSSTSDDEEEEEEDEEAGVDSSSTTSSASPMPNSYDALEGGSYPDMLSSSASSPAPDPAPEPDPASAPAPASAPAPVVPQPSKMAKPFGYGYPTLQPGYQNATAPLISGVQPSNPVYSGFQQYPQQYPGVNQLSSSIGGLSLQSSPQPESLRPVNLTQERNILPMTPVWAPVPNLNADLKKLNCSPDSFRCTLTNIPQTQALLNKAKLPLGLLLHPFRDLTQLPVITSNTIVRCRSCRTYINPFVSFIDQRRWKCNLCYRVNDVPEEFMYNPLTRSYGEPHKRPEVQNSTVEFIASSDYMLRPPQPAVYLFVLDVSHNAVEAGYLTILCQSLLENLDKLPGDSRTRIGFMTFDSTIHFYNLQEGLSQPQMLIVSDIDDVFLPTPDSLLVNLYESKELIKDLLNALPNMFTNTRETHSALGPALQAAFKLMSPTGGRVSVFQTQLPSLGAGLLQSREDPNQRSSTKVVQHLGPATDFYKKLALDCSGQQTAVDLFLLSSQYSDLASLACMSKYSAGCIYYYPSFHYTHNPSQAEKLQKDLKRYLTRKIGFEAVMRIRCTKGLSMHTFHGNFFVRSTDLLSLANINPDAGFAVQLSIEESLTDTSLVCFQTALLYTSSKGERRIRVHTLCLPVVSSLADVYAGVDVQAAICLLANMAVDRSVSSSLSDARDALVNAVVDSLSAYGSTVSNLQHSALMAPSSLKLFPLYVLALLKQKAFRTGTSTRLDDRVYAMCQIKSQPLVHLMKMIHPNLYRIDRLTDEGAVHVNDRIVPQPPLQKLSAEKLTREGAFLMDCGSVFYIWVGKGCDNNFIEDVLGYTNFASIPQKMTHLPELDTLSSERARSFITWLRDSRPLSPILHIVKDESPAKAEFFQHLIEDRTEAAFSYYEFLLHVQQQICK
The assay is described as follows: SEC; SEC-SWATH-MS: native extract (0.5% NP-40, freeze-thaw) of HeLa CCL2 cells synchronized in interphase (double thymidine block) or mitosis (thymidine, nocodazole, shake-off); SRT-C-SEC 500 column, 50 mM HEPES pH 7.5, 150 mM NaCl, 0-4°C; 65 fractions profiled by SWATH-MS, triplicates; association inferred from co-elution. As to conditions: remark: other sources report otherwise. A general note: In gel filtration, larger molecules generally elute earlier.

Sequences of proteins named here, by UniProt entry; tags and fusion partners are left off.
UniProt Q9BVL2: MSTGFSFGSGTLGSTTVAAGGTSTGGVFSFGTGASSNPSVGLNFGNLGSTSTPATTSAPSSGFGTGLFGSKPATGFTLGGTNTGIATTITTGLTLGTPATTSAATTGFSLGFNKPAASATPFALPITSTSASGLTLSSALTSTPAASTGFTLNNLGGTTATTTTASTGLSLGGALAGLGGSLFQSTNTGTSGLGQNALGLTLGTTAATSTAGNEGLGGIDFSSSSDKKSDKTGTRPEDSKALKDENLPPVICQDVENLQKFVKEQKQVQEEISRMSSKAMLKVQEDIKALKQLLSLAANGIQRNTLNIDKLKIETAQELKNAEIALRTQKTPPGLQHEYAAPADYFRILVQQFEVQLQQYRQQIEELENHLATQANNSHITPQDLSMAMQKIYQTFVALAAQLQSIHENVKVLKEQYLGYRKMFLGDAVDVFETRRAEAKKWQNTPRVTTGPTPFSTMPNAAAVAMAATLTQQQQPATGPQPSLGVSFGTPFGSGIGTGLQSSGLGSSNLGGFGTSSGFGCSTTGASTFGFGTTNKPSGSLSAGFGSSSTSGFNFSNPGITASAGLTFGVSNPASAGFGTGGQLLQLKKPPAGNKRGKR
UniProt Q15554: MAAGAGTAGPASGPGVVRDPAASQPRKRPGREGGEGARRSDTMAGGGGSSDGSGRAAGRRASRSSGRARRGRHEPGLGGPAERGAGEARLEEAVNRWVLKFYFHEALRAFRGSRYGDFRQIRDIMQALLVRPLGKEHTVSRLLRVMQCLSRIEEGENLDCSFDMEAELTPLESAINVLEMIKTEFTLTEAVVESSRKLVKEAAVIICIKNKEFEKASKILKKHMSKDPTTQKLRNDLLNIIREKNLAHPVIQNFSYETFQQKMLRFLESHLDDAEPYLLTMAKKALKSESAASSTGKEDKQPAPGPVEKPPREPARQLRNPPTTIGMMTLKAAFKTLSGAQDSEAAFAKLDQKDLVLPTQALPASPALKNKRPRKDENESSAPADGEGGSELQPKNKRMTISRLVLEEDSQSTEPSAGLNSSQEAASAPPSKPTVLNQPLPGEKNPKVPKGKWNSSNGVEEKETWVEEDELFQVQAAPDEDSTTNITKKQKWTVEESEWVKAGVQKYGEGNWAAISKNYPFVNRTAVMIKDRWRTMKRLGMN

In another assay the target is HA-Strep-tagged NUP58 (UniProt Q9BVL2). The assay is described as follows: pull-down; HA-Strep-NUP58 captured on StrepTactin Sepharose from lysate of HeLa Flp-In T-REx cells synchronized in interphase or mitosis; 25 mM Tris-HCl pH 7.6, 125 mM NaCl, 2 mM MgCl2, 1 mM DTT, 0.5% NP-40, 4°C; biotin elution; immunoblotting; HA-Strep-GFP as control bait.
In assay [2] the target is T2, NUP93 (human (endogenous in HeLa)) (UniProt Q8N1F7).
T2 sequence: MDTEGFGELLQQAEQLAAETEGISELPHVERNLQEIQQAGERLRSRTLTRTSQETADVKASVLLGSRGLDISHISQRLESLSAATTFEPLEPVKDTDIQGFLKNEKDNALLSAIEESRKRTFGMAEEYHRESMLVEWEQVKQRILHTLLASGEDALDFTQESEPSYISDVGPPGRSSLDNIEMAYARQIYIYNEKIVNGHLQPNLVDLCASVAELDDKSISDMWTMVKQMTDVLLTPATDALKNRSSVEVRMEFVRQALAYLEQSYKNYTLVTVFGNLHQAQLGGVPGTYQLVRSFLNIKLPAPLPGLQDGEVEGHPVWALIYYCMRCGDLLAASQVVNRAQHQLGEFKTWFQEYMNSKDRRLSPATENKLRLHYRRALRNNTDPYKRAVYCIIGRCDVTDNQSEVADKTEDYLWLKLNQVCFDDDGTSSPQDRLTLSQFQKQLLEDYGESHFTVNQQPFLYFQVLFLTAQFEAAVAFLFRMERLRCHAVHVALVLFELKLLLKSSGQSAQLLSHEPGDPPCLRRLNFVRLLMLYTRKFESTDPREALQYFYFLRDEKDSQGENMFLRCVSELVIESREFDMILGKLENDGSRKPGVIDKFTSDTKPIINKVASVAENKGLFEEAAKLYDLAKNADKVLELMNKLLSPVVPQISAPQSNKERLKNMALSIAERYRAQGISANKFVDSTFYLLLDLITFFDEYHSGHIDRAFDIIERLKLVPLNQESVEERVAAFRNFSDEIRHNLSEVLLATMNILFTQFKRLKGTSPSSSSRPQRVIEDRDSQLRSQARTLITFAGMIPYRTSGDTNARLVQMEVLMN
Briefly: SEC; SEC-SWATH-MS: native extract (0.5% NP-40, freeze-thaw) of HeLa CCL2 cells synchronized in interphase (double thymidine block) or mitosis (thymidine, nocodazole, shake-off); SRT-C-SEC 500 column, 50 mM HEPES pH 7.5, 150 mM NaCl, 0-4°C; 65 fractions profiled by SWATH-MS, triplicates; association inferred from co-elution.

For assay [3], the target named is TRF2 (human (endogenous in HeLa)) (UniProt Q15554). The description is as above.
Assay [4] has as its target T3, NUP93 (human (endogenous in HeLa)), Q8N1F7.
T3 chain: T2 sequence
The assay is described as above. The following applies: remark: other sources report otherwise.

Results are given in words; binding and its absence hold for the method and conditions named. For some assays here: In cells and extracts the contact can be indirect. Some binding calls cover weakened binding; strength is not graded here.

B1: SEC13, P55735 1-322 (protein)
chain: MVSVINTVDTSHEDMIHDAQMDYYGTRLATCSSDRSVKIFDVRNGGQILIADLRGHEGPVWQVAWAHPMYGNILASCSYDRKVIIWREENGTWEKSHEHAGHDSSVNSVCWAPHDYGLILACGSSDGAISLLTYTGEGQWEVKKINNAHTIGCNAVSWAPAVVPGSLIDHPSGQKPNYIKRFASGGCDNLIKLWKEEEDGQWKEEQKLEAHSDWVRDVAWAPSIGLPTSTIASCSQDGRVFIWTCDDASSNTWSPKLLHKFNDVVWHVSWSITANILAVSGGDNKVTLWKESVDGQWVCISDVNKGQGSVSASVTEGQQNEQ
In the case of B1, in assay [1], the binding entry is “no binding”.

B2: NUP54 (protein, UniProt Q7Z3B4 1-507)
chain: MAFNFGAPSGTSGTAAATAAPAGGFGGFGTTSTTAGSAFSFSAPTNTGTTGLFGGTQNKGFGFGTGFGTTTGTSTGLGTGLGTGLGFGGFNTQQQQQTTLGGLFSQPTQAPTQSNQLINTASALSAPTLLGDERDAILAKWNQLQAFWGTGKGYFNNNIPPVEFTQENPFCRFKAVGYSCMPSNKDEDGLVVLVFNKKETEIRSQQQQLVESLHKVLGGNQTLTVNVEGTKTLPDDQTEVVIYVVERSPNGTSRRVPATTLYAHFEQANIKTQLQQLGVTLSMTRTELSPAQIKQLLQNPPAGVDPIIWEQAKVDNPDSEKLIPVPMVGFKELLRRLKVQDQMTKQHQTRLDIISEDISELQKNQTTSVAKIAQYKRKLMDLSHRTLQVLIKQEIQRKSGYAIQADEEQLRVQLDTIQGELNAPTQFKGRLNELMSQIRMQNHFGAVRSEERYYIDADLLREIKQHLKQQQEGLSHLISIIKDDLEDIKLVEHGLNETIHIRGGVFS
Take B2: the binding entry (with HA-Strep-tagged NUP58; in assay [2]) was “binds” each time.

B3: RAP1 (protein, UniProt Q9NYB0 1-399)
chain: MAEAMDLGKDPNGPTHSSTLFVRDDGSSMSFYVRPSPAKRRLSTLILHGGGTVCRVQEPGAVLLAQPGEALAEASGDFISTQYILDCVERNERLELEAYRLGPASAADTGSEAKPGALAEGAAEPEPQRHAGRIAFTDADDVAILTYVKENARSPSSVTGNALWKAMEKSSLTQHSWQSLKDRYLKHLRGQEHKYLLGDAPVSPSSQKLKRKAEEDPEAADSGEPQNKRTPDLPEEEYVKEEIQENEEAVKKMLVEATREFEEVVVDESPPDFEIHITMCDDDPPTPEEDSETQPDEEEEEEEEKVSQPEVGAAIKIIRQLMEKFNLDLSTVTQAFLKNSGELEATSAFLASGQRADGYPIWSRQDDIDLQKDDEDTREALVKKFGAQNVARRIEFRKK
On to B3, for which the binding result in assay [3] is on record as “binds”.

B4: NUP50, Q9UKX7 1-468 (protein)
chain: MAKRNAEKELTDRNWDQEDEAEEVGTFSMASEEVLKNRAIKKAKRRNVGFESDTGGAFKGFKGLVVPSGGGRFSGFGSGAGGKPLEGLSNGNNITSAPPFASAKAAADPKVAFGSLAANGPTTLVDKVSNPKTNGDSQQPSSSGLASSKACVGNAYHKQLAALNCSVRDWIVKHVNTNPLCDLTPIFKDYEKYLANIEQQHGNSGRNSESESNKVAAETQSPSLFGSTKLQQESTFLFHGNKTEDTPDKKMEVASEKKTDPSSLGATSASFNFGKKVDSSVLGSLSSVPLTGFSFSPGNSSLFGKDTTQSKPVSSPFPTKPLEGQAEGDSGECKGGDEEENDEPPKVVVTEVKEEDAFYSKKCKLFYKKDNEFKEKGIGTLHLKPTANQKTQLLVRADTNLGNILLNVLIPPNMPCTRTGKNNVLIVCVPNPPIDEKNATMPVTMLIRVKTSEDADELHKILLEKKDA
Turning to B4, the binding result in assay [4] is reported as “no binding”.

The values are drawn from article PMC7042714.
